According to patent US20250136689A1, “COMPOSITIONS FOR AND METHODS OF TREATING HEMATOLOGICAL CANCERS” (Duke University, priority 2022, published 2025):
Some entries share one result that the patent states for a list of compounds.

Test system: c1498 AML
Test: Survival of C57BL/6 mice injected with c1498 AML cells
Type: in vivo
Conditions: single-agent treatment (the other groups)
Method: About 2×10^5 c1498 cells were injected into the tail vein of C57BL/6 mice. At 24 hrs after the injection, the mice were treated with 100 mg/kg cytarabine (injected i.p. every 12 hrs for 3 times). At 24 hrs after the last treatment, Annexin V-Fc was given i.p. 4 times at 72 hours intervals. The mice were then observed and sacrificed until they were moribund. Shown were the survival of different mice after they were treated with different antibody and drug combinations.
Whether Annexin V-IgG1Fc fusion protein can enhance the treatment of c1498 AML in syngeneic mice (C57BL/6) in combination with cytarabine, a commonly used drug for AML treatment, was examined. […] Here, about 2×10^5 c1498 cells were injected into the tail vein of C57BL/6 mice. At 24 hrs after the injection, the mice were treated with 100 mg/kg cytarabine (injected i.p. every 12 hrs for 3 times). At 24 hrs after the last treatment, Annexin V-Fc was given i.p. 4 times at 72 hours intervals. The mice were then observed and sacrificed until they are moribund.

Molecule | median survival of host mice [days]
Nc1ccn([C@@H]2O[C@H](CO)[C@@H](O)[C@@H]2O)c(=O)n1 [cytarabine] | ≤ 27
Annexin V-IgG1Fc fusion protein: Annexin V fused to the Fc domain of IgG1; SEQ ID NO:85 is the form with secretion signal | ≤ 27
